For 61 molecules, cell number change and AC50 results are on record in PubChem BioAssay AID2685 (National Center for Advancing Translational Sciences (NCATS), 2010).

The list shows a part of the results. These are further read-outs of the screen, such as a control signal, another cell line or another target. No call is given for them. Compounds called inactive in the main read-out are mostly missing here. Potencies come from curve fits of mixed quality, noted in brackets.

The assay can be described thus: qHTS Assay for Lipid Storage Modulators in Drosophila S3 Cells.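 As to cell number change: cells counted by Cell Tracker Red CMTPX staining in the red channel.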 Conditions: BODIPY lipid droplet fluorescence, 18-24 h; for cell number change: measured here: cell count max response, cells fed with added oleic acid. In a few lines: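 Laser-scanning cytometry quantifies lipid droplet accumulation (500–530 nm total intensity; droplet/cell object ratio) in oleic acid-fed (400 uM added) Drosophila S3 cells treated with a concentration series. 20 uM Triacsin C defined 100% inhibition.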

Where [1] appears, read: measured here: cell number channel AC50, cells fed with added oleic acid.
The mark [2] stands for this setting: measured here: lipid fluorescence (Fed channel) AC50, cells fed with added oleic acid.

On to `COc1ccc(S(=O)(=O)N(C(=O)C(C)C)c2ccc3oc(=O)sc3c2)cc1`, for which the cell number change was -53.1%. Under setting [1], the AC50 – broadly, the concentration at which the activity in the assay is half-maximal – is 14.6 µM [falling, single point]. In addition, the AC50 under setting [2] is 29.1 µM [falling, single point]. For `O=C(COc1cc2oc(=O)c3c(c2cc1Cl)CCC3)NCCCN1CCCC1=O`, the cell number change came to 11.1%. Consider `COc1cc(/C=N/N(c2ccccc2)c2ccccc2)ccc1O`, for which the cell number change is -81.3%. Besides, under setting [1], the half-maximal activity concentration (AC50) is 16.4 µM [falling, single point]. Consider `CCN(CC)S(=O)(=O)c1ccc(NC(=O)CCNC(=O)c2ccccc2)cc1`, for which the cell number change came to 6.83%. Also, under setting [2], the AC50 was 4.61 µM [rising, single point].

Regarding `CS(=O)(=O)N1CCc2cc(C(=O)OCC(=O)c3ccccc3)ccc21`, the cell number change was -0.556%.

Turning to `O=C1CCC(C(=O)N2CCN(c3ccc(F)cc3)CC2)CN1CC1CCCCC1` (stereo unspecified), the cell number change worked out at 29.4%. The AC50 under setting [1] was 2.31 µM [rising, full curve, poor fit]. For `COc1ccc(Cl)c(Cn2c(NCCCN(C)C)nc3c2c(=O)n(C)c(=O)n3C)c1`, the cell number change came out at 9.46%. The AC50 under setting [2] is 3.26 µM [rising, partial curve, poor fit]. As for `COc1ccc(NC(=O)CCS(=O)(=O)c2cccc3nonc23)cc1`, the cell number change came to 108%. Under setting [1], the AC50 is 29.1 µM [rising, single point]. Also, the half-maximal activity concentration (AC50) under setting [2] was 20.6 µM [rising, partial curve].

Take `COc1ccc(C(=O)NCCc2nnc3ccc(SCC(=O)Nc4ccccc4)nn23)cc1`: the cell number change is -1.62%. The AC50 under setting [2] was 29.1 µM [falling, single point]. Turning to `CC(C)(C)c1ccc(S(=O)(=O)NCC(=O)Nc2sc3c(c2C(N)=O)CCCC3)cc1`, the cell number change was -5.71%. As for `Oc1ccc2ccccc2c1CNc1ccccn1`, the cell number change was -7.8%. The AC50 under setting [2] was 6.51 µM [rising, single point]. Consider `Cc1cccc(C)c1NC(=O)C1CCCN1C(=O)Nc1cccc(F)c1` (stereo unspecified), for which the cell number change is 9.46%. With `C=CCn1c(SCC(=O)N2CCN(C(=O)c3ccco3)CC2)nc2sc(CC)cc2c1=O`, the cell number change was -9.03%. The AC50 under setting [2] was 0.13 µM [rising, full curve, poor fit].

With `CC(OC(=O)c1ccc(C(C)(C)C)cc1)C(=O)NC1CCCCC1C` (stereo unspecified), the cell number change was found to be 0.0367%. Besides, the AC50 under setting [1] was 4.61 µM [rising, single point]. Further, the AC50 under setting [2] is 20.6 µM [falling, single point].

Take `CCOC(=O)C(=O)NCC(c1cccs1)S(=O)(=O)c1ccc(C)cc1` (stereo unspecified): the cell number change is -3.85%. For the same molecule, the AC50 under setting [2] was 0.116 µM [rising, full curve, poor fit]. For `CCN(CC(=O)NCc1cccs1)C(=O)c1cccc(S(=O)(=O)NC)c1`, the cell number change was -8.84%. In the case of `O=C(/C=C/c1c(Cl)cccc1Cl)N1CCN(c2ncccn2)CC1`, the cell number change came out at 36.4%. Moreover, under setting [1], the AC50 is 4.11 µM [rising, full curve]. In the case of `CC(=O)c1cccc(NS(=O)(=O)c2ccc3c(c2)N(C(C)=O)CCO3)c1`, the cell number change is -5.7%. Regarding `O=C(CSc1nc(Nc2ccccc2)nc(N2CCOCC2)n1)Nc1ccc([N+](=O)[O-])cc1`, the cell number change is -12%. For the same molecule, under setting [1], the AC50 is 0.259 µM [rising, partial curve, poor fit]. Moreover, the AC50 under setting [2] is 0.651 µM [rising, full curve]. For the molecule `O=C(N/N=C/c1ccc(N2CCCCC2)o1)c1ccccc1`, the cell number change is -35.7%. For the same molecule, the half-maximal activity concentration (AC50) under setting [1] was 29.1 µM [falling, single point]. Under setting [2], the AC50 is 25.9 µM [falling, single point]. `Cc1sc2ncn(CC(=O)N3CCN(c4ccc(F)cc4)CC3)c(=O)c2c1S(=O)(=O)N1CCOCC1`: the cell number change was 0.833%. In addition, the AC50 under setting [2] was 0.411 µM [falling, partial curve]. Consider `CC(C)c1ccc(NC(=O)NCc2cccnc2)cc1`, for which the cell number change came to 16%. The AC50 under setting [2] is 10 µM [rising, partial curve, poor fit].

Take `COc1cccc(NC(=O)NCCCN2CCN(c3ccc(F)cc3)CC2)c1`: the cell number change is -3.21%. Consider `COc1ccc(C(O)(c2ccccc2OC)C(CN2CCOCC2)c2ccccc2)cc1` (stereo unspecified), for which the cell number change was determined as 15.6%. For the same molecule, the AC50 under setting [1] is 0.103 µM [falling, full curve, poor fit]. Under setting [2], the AC50 is 0.13 µM [falling, full curve, poor fit]. Turning to `CC(C)(C)c1nnc(NC(=O)c2cccnc2)s1`, the cell number change was 84.6%. Also, the AC50 under setting [2] is 0.00461 µM [falling, full curve, poor fit]. Consider `Cc1ccc(C(=O)NC(=S)NNC(=O)CCN2CCOCC2)cc1`, for which the cell number change is -2.71%. With `COc1ccc(S(=O)(=O)N2CCCCCC2)cc1NC(=O)CC1OC(=O)c2ccccc21` (stereo unspecified), the cell number change was determined as 65.9%. Besides, the AC50 under setting [1] is 4.61 µM [rising, partial curve].

With `O=C(O)CSCNC(=O)CC12CC3CC(CC(C3)C1)C2`, the cell number change is -17.5%. In the case of `CCc1nn(CC(=O)NC(C)CCc2ccccc2)c(=O)c2cc3occc3n12` (stereo unspecified), the cell number change is -0.885%. The AC50 under setting [2] was 11.6 µM [falling, single point].

In the case of `COc1ccc2c(c1OC)C(=O)N1C(C(=O)O)Cc3c([nH]c4ccccc34)C21` (stereo unspecified), the cell number change worked out at 34.3%. Further, the AC50 under setting [1] is 5.8 µM [rising, full curve]. Besides, under setting [2], the AC50 was 6.51 µM [rising, single point]. Take `CCN1C(=O)[C@H]2[C@@H](c3ccc(-c4ccc5c(c4)OCO5)c(OC)c3)N[C@@](Cc3ccccc3)(C(=O)OC)[C@H]2C1=O`: the cell number change was -24.3%.

Regarding `Cc1ccc(-c2nc(C3CCN(S(=O)(=O)c4ccc(C(C)(C)C)cc4)CC3)no2)cc1`, the cell number change is -49.4%. Also, under setting [1], the AC50 is 5.17 µM [falling, single point]. Besides, the AC50 under setting [2] is 29.1 µM [falling, single point]. On to `O=C1NC(=O)c2cc(Br)cc3cccc1c23`, for which the cell number change is -1.08%. As to `Cc1cc(=O)oc2c3c(cc(OCC(=O)NC4CC4)c12)OC(C)(C)CC3`, the cell number change worked out at 0.971%. In addition, the AC50 under setting [2] was 20.6 µM [falling, single point].

Consider `O=C(Nc1ccc(-c2nc3ccccc3s2)cc1)c1cc(-n2cnnc2)ccc1Cl`, for which the cell number change is -55.8%. Under setting [1], the AC50 is 29.1 µM [falling, single point]. Also, under setting [2], the AC50 was 18.4 µM [falling, single point]. As to `CCC(C)Sc1nnc(CSc2nc(C)cc(C)n2)n1C` (stereo unspecified), the cell number change was -7.29%.

For the molecule `COc1cccc(N2CC(NC(=O)c3ccc4ccccc4c3)CC2=O)c1` (stereo unspecified), the AC50 under setting [2] is 16.4 µM [rising, partial curve]. Turning to `Nc1c(C(=O)CSc2ncccn2)c(=O)[nH]c(=O)n1C1CC1`, the cell number change was -19.8%. Under setting [2], the AC50 was 2.31 µM [falling, full curve, poor fit]. For the molecule `CN(C)c1ccc(NC(=O)CSc2nnc(-c3cccs3)n2Cc2ccco2)cc1`, the half-maximal activity concentration (AC50) was 1.84 µM [rising, partial curve] under setting [1] and 2.31 µM [rising, partial curve] under setting [2].

For the molecule `CCCn1c(=O)c2ccccc2n2c(SCc3nc4ccccc4s3)nnc12`, the cell number change is -1.69%. Besides, under setting [2], the AC50 is 0.461 µM [rising, full curve]. For `COCCCNC(=O)Cn1cc(/C=C(\C#N)C(=O)NC2CCCC2)c2ccccc21`, the cell number change came out at 2.55%. For the same molecule, under setting [2], the AC50 is 29.1 µM [falling, single point].

As to `CC(C)CC1NC(=O)N(CC(=O)N2CCN(S(=O)(=O)c3ccc4ccccc4c3)CC2)C1=O` (stereo unspecified), the cell number change is 42.6%.

Take `O=C(CN1C(=O)/C(=C/c2ccc(C(F)(F)F)cc2)Sc2ccccc21)NCCCN1CCOCC1`: the cell number change is -4.28%. In addition, under setting [2], the AC50 was 1.64 µM [rising, partial curve]. In the case of `Cc1ccccc1C(=O)c1c[nH]c(C(=O)NCCCn2ccnc2)c1`, the cell number change is 31.4%. Moreover, under setting [1], the AC50 was 32.6 µM [rising, single point]. With `COc1ccc(-c2noc(CCC(=O)NC3CCN(Cc4ccccc4)CC3)n2)cc1`, the cell number change was -16.6%. Also, the AC50 under setting [2] was 29.1 µM [falling, single point].

For the molecule `c1ccc(-c2cc(-c3nnc4sc(-c5ccccn5)nn34)[nH]n2)cc1`, the cell number change was -31.8%. Moreover, the AC50 under setting [1] was 6.51 µM [falling, partial curve]. Besides, under setting [2], the AC50 was 16.4 µM [falling, single point]. Consider `CC(C)n1nnnc1SCC(=O)N1CCOCC1`, for which the cell number change was -80.8%. In addition, the AC50 under setting [1] was 25.9 µM [falling, partial curve]. Further, the half-maximal activity concentration (AC50) under setting [2] was 3.26 µM [falling, full curve]. As for `O=C(COc1ccccc1Br)c1ccc(O)cc1O`, the cell number change is -17.5%. Moreover, the AC50 under setting [2] is 6.51 µM [rising, single point]. As to `CC(=O)c1c(C)[nH]c(C(=O)COC(=O)CNS(=O)(=O)c2ccccc2)c1C`, the cell number change came out at 11.5%. Further, the AC50 under setting [2] is 18.4 µM [rising, single point]. In the case of `COc1ccc(CN(C(=O)COc2ccccc2)c2ccccc2C(=O)O)cc1`, the cell number change was -24.1%. Further, the AC50 under setting [1] was 2.31 µM [falling, partial curve, poor fit]. As to `Cc1cc(F)ccc1S(=O)(=O)N1CCCOC1CNC(=O)C(=O)NCCN1CCOCC1` (stereo unspecified), the cell number change was found to be 10.4%. The AC50 under setting [2] is 23.1 µM [rising, partial curve]. Consider `Cc1ccc(S(=O)(=O)/N=C(/Nc2cccc(O)c2)c2ccccc2)cc1`, for which the cell number change is -11.8%. As for `CCCC(=O)N1CCc2cc(OC)c(OC)cc2C1COc1ccccc1OC` (stereo unspecified), the cell number change is -48.9%. For the same molecule, the AC50 under setting [1] is 10.3 µM [falling, partial curve]. Under setting [2], the AC50 is 11.6 µM [falling, partial curve]. In the case of `COc1cccc(CN(C)CC(=O)Nc2ccccc2N2CCOCC2)c1OC`, the cell number change was -20.9%. Further, the AC50 under setting [2] was 7.31 µM [falling, single point]. As to `Cc1cccc(NC(=O)CN2C(=O)S/C(=C\c3ccccn3)C2=O)c1`, the cell number change was -45.5%. As to `O=C(Nc1ccc2c(c1)OCCO2)c1ccncc1`, the cell number change is 3.77%. For `CC1(C)OC(=CC=Nc2ccc(Cl)cc2)OC1(C)C`, the cell number change was -13.8%. Under setting [2], the half-maximal activity concentration (AC50) was 23.1 µM [falling, partial curve, poor fit]. For `O=C(CC1CCCCC1)N1CCN(c2ccccn2)CC1`, the cell number change came out at 10.7%. Also, the half-maximal activity concentration (AC50) under setting [2] is 1.16 µM [rising, partial curve]. In the case of `Cc1cccc(CNS(=O)(=O)c2ccc(-c3ccc(=O)[nH]n3)s2)c1`, the cell number change is -16.7%. The AC50 under setting [2] was 0.0231 µM [rising, full curve].

On to `O=C(CCC(=O)c1ccc(Cl)s1)Nc1ncccc1O`, for which the cell number change is -16.2%. For the same molecule, the AC50 under setting [2] is 2.06 µM [rising, full curve]. As to `COc1ccc2c(c1OC)C(=O)OC2N1C(=O)CC[C@H]1C(=O)Nc1ccc(F)cc1F` (stereo partly specified), the cell number change is 2.91%.
